Experimental data from patent EP0374919A1, “Morphine derivative” (Chugai Seiyaku Kabushiki Kaisha, priority 1988, dated 1990).

Columns and labels:
male mice (Slc: ddy) [1] = test: Analgesic examination by radiant heat-stimulation test (tail irradiation, pain threshold); details: mouse, in vivo
Text: Example 6 Analgesic Examination by Radiant Heat-Stimulation Test:
The compounds of the present invention and morphine hydrochloride were subcutaneously injected into male mice (Slc: ddy) aged 4 weeks. Each group had 7 animals. An hour after the injection, the analgesic effect of each compound was examined by radiant heat-stimulation test [refer to A.G. Hayes, M.J. Sheehan, M.B. Tyers; Brit. J. Pharmacol., 91, 111 - 115 (1987)]. Namely, the tail of each mouse was irradiated with intense light and the time required until the animal switched its tail was measured. The value thus measured was referred to as the pain threshold.

male mice (Slc: ddy) [2] = test: Analgesic effect examined by acetic acid-writhing test; details: mouse, in vivo
Method: Example 8 Analgesic Effect Examined by Acetic Acid- Writhing Test:
Male mice (Slc: ddy) aged 5 weeks were divided into groups each having 7 animals. The compounds of the present invention and morphine hydrochloride and pentazocine, which were employed as control compounds, were subcutaneously injected into these animals. After 30 minutes, 0.6% acetic acid was intraperitoneally administered to each mouse in a dose of 0.1 ml/10 g. 10 minutes thereafter, the writhings thus induced were counted within 10 minutes. […] The acetic acid-writhing test was conducted according to a method reported by R. Koster, M. Anderson and E.I. Debeer [refer to Fed. Proc., 18, 412 (1959)].

[3] = test system: extirpated guinea pig ileum pieces; test: Transmural electric stimulation test on an extirpated guinea pig ileum piece (smooth muscle contraction); format: cell-based
Method: Example 7 Transmural Electric Stimulation Test on an Extirpated Guinea Pig Ileum Piece:
The effects of the compounds were examined by applying transmural electric stimulation (0.1 Hz) to extirpated guinea pig ileum pieces while using the smooth muscle contraction as an indication [refer to H.K. Kopsterlitz, A.A. Waterfield; Annu. Rev. Pharmacol., 15, 29 - 47 (1975)].
The data shown in Table 1 were calculated according to a method reported by Arunlakshana and Schild [refer to 0. Arunlakashana, H.O. Schild; Brit. J. Pharmacol., 14, 48 - 58 (1959)]. Each value is expressed in mean ± standard deviation.

In the case of CN1CC[C@]23c4c5ccc(O)c4O[C@H]2[C@@H](O)C=C[C@H]3[C@H]1C5.Cl [Morphine hydrochloride, reference compound], the “analgesic activity 3 hours after administration” value (male mice (Slc: ddy) [1]) is reported as “scarcely any analgesic activity”, the ED₅₀ (male mice (Slc: ddy) [2]) is reported as 0.139 mg/kg and the pD₂ [3] is reported as 7.32 ± 0.13.
